The chains behind the UniProt entries cited, without tags or fusion partners. Where a name states a change or a piece, a line headed by the entry shows the natural chain unless it says otherwise.
UniProt Q57YF8: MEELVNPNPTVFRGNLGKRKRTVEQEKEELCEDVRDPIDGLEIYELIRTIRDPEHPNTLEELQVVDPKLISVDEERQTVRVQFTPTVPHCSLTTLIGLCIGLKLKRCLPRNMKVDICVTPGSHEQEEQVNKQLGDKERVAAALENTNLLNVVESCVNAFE
UniProt Q388J9: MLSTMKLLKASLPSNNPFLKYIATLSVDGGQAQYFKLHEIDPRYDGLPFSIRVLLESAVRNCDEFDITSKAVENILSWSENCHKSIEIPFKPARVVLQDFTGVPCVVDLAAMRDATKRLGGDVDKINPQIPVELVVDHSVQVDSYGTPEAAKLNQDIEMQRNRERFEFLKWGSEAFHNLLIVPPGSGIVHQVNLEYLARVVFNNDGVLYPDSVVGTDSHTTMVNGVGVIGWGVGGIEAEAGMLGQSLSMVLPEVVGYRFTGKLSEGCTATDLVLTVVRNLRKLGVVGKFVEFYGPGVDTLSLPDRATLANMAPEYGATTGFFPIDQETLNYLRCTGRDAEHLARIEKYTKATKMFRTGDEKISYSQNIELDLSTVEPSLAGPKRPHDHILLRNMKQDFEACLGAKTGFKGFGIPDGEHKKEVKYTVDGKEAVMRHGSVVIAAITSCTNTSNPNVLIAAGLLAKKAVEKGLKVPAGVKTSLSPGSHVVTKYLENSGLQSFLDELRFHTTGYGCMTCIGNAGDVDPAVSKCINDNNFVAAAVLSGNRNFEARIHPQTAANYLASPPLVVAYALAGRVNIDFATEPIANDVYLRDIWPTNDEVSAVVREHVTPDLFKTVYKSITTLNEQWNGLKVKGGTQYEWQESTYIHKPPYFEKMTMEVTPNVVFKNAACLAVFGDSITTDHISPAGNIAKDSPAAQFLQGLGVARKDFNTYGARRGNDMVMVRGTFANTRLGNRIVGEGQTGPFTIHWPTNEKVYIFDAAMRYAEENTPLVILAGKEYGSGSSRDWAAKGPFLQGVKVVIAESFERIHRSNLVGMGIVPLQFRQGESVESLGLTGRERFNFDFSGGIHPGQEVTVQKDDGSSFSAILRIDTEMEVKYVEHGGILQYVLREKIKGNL
UniProt Q57YJ9: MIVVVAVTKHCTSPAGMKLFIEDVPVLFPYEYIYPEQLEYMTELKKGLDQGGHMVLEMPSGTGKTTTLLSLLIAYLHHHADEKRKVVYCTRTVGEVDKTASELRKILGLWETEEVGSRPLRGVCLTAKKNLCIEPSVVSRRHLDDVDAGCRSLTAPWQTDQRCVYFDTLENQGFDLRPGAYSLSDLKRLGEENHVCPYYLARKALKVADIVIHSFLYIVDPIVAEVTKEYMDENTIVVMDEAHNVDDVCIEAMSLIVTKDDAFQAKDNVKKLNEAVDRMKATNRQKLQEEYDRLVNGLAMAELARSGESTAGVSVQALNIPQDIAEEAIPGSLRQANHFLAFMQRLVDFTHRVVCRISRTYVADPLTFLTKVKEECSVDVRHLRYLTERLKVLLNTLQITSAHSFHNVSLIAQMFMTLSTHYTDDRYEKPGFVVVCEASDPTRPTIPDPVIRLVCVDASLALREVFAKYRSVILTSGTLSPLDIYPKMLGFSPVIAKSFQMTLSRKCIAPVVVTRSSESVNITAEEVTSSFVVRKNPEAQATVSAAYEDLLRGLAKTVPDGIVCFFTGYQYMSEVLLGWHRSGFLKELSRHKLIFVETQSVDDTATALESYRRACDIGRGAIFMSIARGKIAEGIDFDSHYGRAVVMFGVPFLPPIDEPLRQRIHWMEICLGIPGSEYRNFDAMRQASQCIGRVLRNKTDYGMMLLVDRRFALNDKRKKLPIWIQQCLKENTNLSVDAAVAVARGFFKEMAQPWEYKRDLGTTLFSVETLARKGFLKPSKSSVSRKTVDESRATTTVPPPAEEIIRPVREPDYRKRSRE

In publication PMC6211773:

Target: rTbCIA2B (Trypanosoma brucei) (UniProt Q57YF8)
Experiment: pull-down; 400 pmoles of rTbCIA2B immobilised on Strep-Tactin resin, incubated with PCF extracts; anti-HA Western blot; only the target purified

Row | binding | Substance
1 | binds | TbACO-HA (from UniProt Q388J9)
2 | binds | TbXPD-HA (from UniProt Q57YJ9)

These are yes or no findings as the source states them, for the method shown. In cells and extracts the contact can be indirect. Binding can be weak; no strength is given.
